# Data: PMC3675011
# T1: RSR-2, the Caenorhabditis elegans ortholog of human SRm300/SRRM2 (C. elegans (endogenous in N2 worms)) (UniProt Q9U213)
# T1 sequence: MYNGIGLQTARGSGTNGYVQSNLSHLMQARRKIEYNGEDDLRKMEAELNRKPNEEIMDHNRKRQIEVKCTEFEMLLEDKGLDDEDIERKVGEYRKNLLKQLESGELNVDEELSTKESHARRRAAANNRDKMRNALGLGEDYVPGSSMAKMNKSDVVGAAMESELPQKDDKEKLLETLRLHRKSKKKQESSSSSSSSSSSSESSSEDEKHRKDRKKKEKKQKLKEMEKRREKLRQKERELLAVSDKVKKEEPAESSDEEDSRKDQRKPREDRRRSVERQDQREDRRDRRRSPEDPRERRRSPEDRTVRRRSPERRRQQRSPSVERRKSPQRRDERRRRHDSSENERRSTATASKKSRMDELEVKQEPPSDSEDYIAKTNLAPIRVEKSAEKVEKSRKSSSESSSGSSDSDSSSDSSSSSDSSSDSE
# B1: Pre-mRNA-processing factor 19 homolog (prp-19) (protein, UniProt Q10051 1-492)
# chain: MSFVCGISGELTEDPVVSQVSGHIFDRRLIVKFIAENGTDPISHGELSEDQLVSLKSGGTGSAPRNVSGTSIPSLLKMLQDEWDTVMLNSFSLRQQLQIARQELSHSLYQHDAACRVISRLSKELTAAREALSTLKPHTSAKVDDDVSIDESEDQQGLSEAILAKLEEKSKSLTAERKQRGKNLPEGLAKTEELAELKQTASHTGIHSTGTPGITALDIKGNLSLTGGIDKTVVLYDYEKEQVMQTFKGHNKKINAVVLHPDNITAISASADSHIRVWSATDSSSKAIIDVHQAPVTDISLNASGDYILSASDDSYWAFSDIRSGKSLCKVSVEPGSQIAVHSIEFHPDGLIFGTGAADAVVKIWDLKNQTVAAAFPGHTAAVRSIAFSENGYYLATGSEDGEVKLWDLRKLKNLKTFANEEKQPINSLSFDMTGTFLGIGGQKVQVLHVKSWSEVVSLSDHSGPVTGVRFGENARSLVTCSLDKSLRVFSF
# Key:
# [1] = molecular target: T1, RSR-2, the Caenorhabditis elegans ortholog of human SRm300/SRRM2 (C. elegans (endogenous in N2 worms)); experiment: affinity purification with mass spectrometry; anti-RSR-2 immunoprecipitate and control rabbit IgG immunoprecipitate from mixed-stage worms run on two-dimensional gels, silver-stained; one differential spot excised, in-gel digestion, LC-MS/MS
# [2] = molecular target: T1, RSR-2, the Caenorhabditis elegans ortholog of human SRm300/SRRM2 (C. elegans (endogenous in N2 worms)); experiment: affinity purification with mass spectrometry; RSR-2-containing complexes immunopurified with anti-RSR-2 antibody from two biological replicates of wild type mixed-stage worms; eluate precipitated with acetone, digested with trypsin (MudPIT), LC-MS/MS; control unspecific rabbit IgG
binder,measurement,setting,value
B1,binding,[1],binds
same,binding,[2],binds

# Results are given in words; binding and its absence hold for the method and conditions named. Binding seen in cells or lysates may run through a third protein. These calls come from enrichment with a bait or labelling near it, and not all partners need be listed.
